Experimental data: patent US5340802A (Abbott Laboratories, priority 1993, dated 1994)
* marks the point of attachment. Boc = CC(C)(C)OC(=O)*

assay: general procedure: solution-phase peptide synthesis; DPPA/N-methylmorpholine; active esters; isobutyl chloroformate/NMM; settings: coupling step

| Substance | step yield |
| --- | --- |
| BOC-Trp-Leu-Asp(OBn)-[3(S)-benzyl-2-oxo-4-piperazine] | 84% |
| BOC-Trp-Leu-Asp(OBn)-α-Nal-NH2 | 70% yield |
| BOC-Trp-Leu-Asp(OBn)-β-Nal-NH2 | 73% yield |
| BOC-Trp-Tpp-Asp(OBn)-Phe-NH2 | 83% yield |
| BOC-[5-amino-2-(1H-indol-3-ylmethyl)-2-pentenoyl]-Leu-Asp-Phe-NH2 | 60% |
| Ctp-Leu-Asp-Phe-NHNH2 | 60% yield |
| Ctp-Tpp-Asp(OBn)-Phe-NH2 | 47% yield |
| Ctp-Tpp-Asp(β-OBn)-(NMe)phe-NH2 | 57% yield |
| N^α -BOC-(N^in -propionyl)Trp-Leu-Asp-Phe-NH2 | 67% |
| N^α -BOC-N^in -formyl-Trp-Leu-Asp-Phe-NH2 | 50% |

same assay, conditions: coupling step, from the compound of Example 23h

| Substance | step yield [% yield] |
| --- | --- |
| BOC-Gly.psi.[CH=CH]Trp-Leu-Asp-Phe-NH2 | 59 |

same assay, conditions: late stage modification step

| Substance | step yield [% yield] |
| --- | --- |
| BOC-Trp-Leu-Asp-α-Nal-NH2 | 71 |

same assay, conditions: whole synthesis, scale 1.50 g of BOC-Trp-O-resin (0.26 mmol/g)

| Substance | isolated mass [mg] |
| --- | --- |
| Boc-WLDW-NH2 | 69 |
